In the supplement of paper PMC10735217:
Where a name gives a salt, the structure may show the parent alone. This is one part of the list. Repeats in this data set agree poorly, so a single value says little.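 In a drug-repurposing library screen, luminescence reads luciferase driven by eight TEAD-binding elements, stably integrated into human kidney-derived cells. Compounds scoring over five robust Z scores above the plate mean are called hits.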

Test system: HEK293A TEAD-LUC reporter
Assay: TEAD-luciferase reporter activity (YAP activation), robust Z score vs plate; higher = stronger YAP/TEAD activation
Conditions: 24 h

Cn1nc(CS(C)(=O)=O)nc1NCCCOc1cccc(CN2CCCCC2)c1 [Sufotidine]
TEAD-luciferase reporter activity (compound concentration: 200 nM): inactive: -1.45 | TEAD-luciferase reporter activity (compound concentration: 2 uM): inactive: -1.25 | TEAD-luciferase reporter activity (compound concentration: 10 uM): inactive: -0.101

NC(=O)c1cnc2[nH]ccc2c1NC1[C@@H]2CC3C[C@H]1C[C@@](O)(C3)C2 (stereo not given in full) [peficitinib]
TEAD-luciferase reporter activity (compound concentration: 200 nM): inactive: -0.219 | TEAD-luciferase reporter activity (compound concentration: 2 uM): active: 11.6 | TEAD-luciferase reporter activity (compound concentration: 10 uM): inactive: 3.75

CC/C(=C(/c1ccc(OCCN(C)C)cc1)c1cccc(O)c1)c1ccccc1
TEAD-luciferase reporter activity (compound concentration: 200 nM): inactive: -0.59 | TEAD-luciferase reporter activity (compound concentration: 2 uM): inactive: -0.41 | TEAD-luciferase reporter activity (compound concentration: 10 uM): inactive: -0.861

CC(C)CN(C)c1ccccc1CS(=O)c1nc2ccccc2[nH]1 (stereo not given) [Leminoprazole]
TEAD-luciferase reporter activity (compound concentration: 200 nM): inactive: -0.488 | TEAD-luciferase reporter activity (compound concentration: 2 uM): inactive: -0.0788 | TEAD-luciferase reporter activity (compound concentration: 10 uM): inactive: 2.82

O=C(O)c1ccccc1OC1CN(C(c2ccccc2)c2ccccc2)C1
TEAD-luciferase reporter activity (compound concentration: 200 nM): inactive: -2.79 | TEAD-luciferase reporter activity (compound concentration: 2 uM): inactive: 0.848 | TEAD-luciferase reporter activity (compound concentration: 10 uM): inactive: 0.33

Cc1ccc(C(=O)N2CCC(N3CCCNC3=O)CC2)cc1
TEAD-luciferase reporter activity (compound concentration: 200 nM): inactive: -3.35 | TEAD-luciferase reporter activity (compound concentration: 10 uM): inactive: -1.45

COC1/C=C/OC2(C)Oc3c(C)c(O)c4c(O)c(cc(O)c4c3C2=O)NC(=O)/C(C)=C\C=C\C(C)C(O)C(C)C(O)C(C)C(OC(C)=O)C1C (stereo not given) [rifamycin]
TEAD-luciferase reporter activity (compound concentration: 200 nM): inactive: -0.872 | TEAD-luciferase reporter activity (compound concentration: 2 uM): inactive: -0.596 | TEAD-luciferase reporter activity (compound concentration: 10 uM): inactive: 2.28

CC[C@@](C)(Nc1ccnc(-c2c[nH]c3ncccc23)n1)C(=O)NCC(F)(F)F [decernotinib]
TEAD-luciferase reporter activity (compound concentration: 200 nM): inactive: -0.128 | TEAD-luciferase reporter activity (compound concentration: 2 uM): inactive: 0.119 | TEAD-luciferase reporter activity (compound concentration: 10 uM): inactive: 0.397

CC1=C(C/C=C(\C)CCC[C@H](C)CCC[C@H](C)CCCC(C)C)C(=O)c2ccccc2C1=O [Phytomenadione]
TEAD-luciferase reporter activity (compound concentration: 200 nM): inactive: 0.27 | TEAD-luciferase reporter activity (compound concentration: 2 uM): inactive: -1.72 | TEAD-luciferase reporter activity (compound concentration: 10 uM): inactive: 0.841

CN1C(=O)N(C[C@H](C(=O)NO)[C@@H](CC2CCCC2)C(=O)N2CCCCC2)C(=O)C1(C)C [Cipemastat]
TEAD-luciferase reporter activity (compound concentration: 200 nM): inactive: -2.82 | TEAD-luciferase reporter activity (compound concentration: 2 uM): inactive: 0.442 | TEAD-luciferase reporter activity (compound concentration: 10 uM): inactive: 1.71

CC(=O)NCC(=O)N1Cc2ccccc2CC2(CCCCN2CC2CCNCC2)C1 (stereo not given)
TEAD-luciferase reporter activity (compound concentration: 200 nM): inactive: -1.88 | TEAD-luciferase reporter activity (compound concentration: 10 uM): inactive: 0.283

CC(C)OC(=O)COC/C=C\C[C@@H]1[C@@H](CC[C@@H](O)C2CCCCC2)[C@H](O)C[C@H]1Cl
TEAD-luciferase reporter activity (compound concentration: 200 nM): inactive: 0.849 | TEAD-luciferase reporter activity (compound concentration: 2 uM): inactive: -1.18 | TEAD-luciferase reporter activity (compound concentration: 10 uM): inactive: 0.648

CC(C)COc1ccc(CNC(=O)N(Cc2ccc(F)cc2)C2CCN(C)CC2)cc1 [pimavanserin tartrate]
TEAD-luciferase reporter activity (compound concentration: 200 nM): inactive: -0.0438 | TEAD-luciferase reporter activity (compound concentration: 2 uM): inactive: 0.0167 | TEAD-luciferase reporter activity (compound concentration: 10 uM): inactive: -0.723

CC(=O)N[C@H]1CSSC[C@@H](C(=O)O)NC(=O)[C@H](CC(=O)[O-])NC(=O)CNC(=O)[C@H](Cc2ccc(C[NH3+])cc2)NC(=O)[C@H]2N(CSC2(C)C)C(=O)[C@H](CC(N)=O)NC1=O
TEAD-luciferase reporter activity (compound concentration: 200 nM): inactive: -0.117 | TEAD-luciferase reporter activity (compound concentration: 2 uM): inactive: -0.965 | TEAD-luciferase reporter activity (compound concentration: 10 uM): inactive: 2.44
